Test results reported in PubChem BioAssay AID328 (DTP/NCI, 2004).
The list is a part of this screen's results and no random one: it gathers tests that were run many times, whatever their T/C, doses with no T/C, and many T/C values between a quarter and a half above the control. Other doses and runs of a compound stand elsewhere. T/C: endpoint of the treated group in % of that of the vehicle group. Some doses have a count of surviving animals in place of a T/C: the source files T/C as zero there, which appears to mark a toxic dose or a test without result, not a measured value. Some survivor counts are full or nearly so, which does not show that the dose was tolerated: the source hardly ever lists a survival T/C far under the control, and the zero likely stands for such cases as well. Counts of survivors are from the toxicity check (mostly the fifth day) where no day follows; animals may have died later. Schedules are NCI's codes, taken here to give the interval after Q, in days (D) or hours (H), and the number of doses after X. Some doses were run more than once; the results are listed from low to high. For survival time, this PubChem deposit counts one and a half times the control or more as active, and values a quarter to a half above the control carry no call in these data; other NCI protocols may use other cut-offs. Some T/C values are followed by the survivors on the day toxicity was checked, most often the fifth; without a count, all were alive then.

Test system: BDF1 mice, P388 leukemia ip, median survival T/C
Experiment: NCI In Vivo Anticancer Drug Screen. Data for tumor model P388 Leukemia (intraperitoneal) in B6D2F1 (BDF1) mice
Settings: T/C endpoint: median survival time, higher T/C = longer survival
Method in brief: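 Transplantable tumour in mice; compound vs vehicle dosing; survival scored; ratio of treated to control reported.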

[1] = dose: 400.0 mg/kg/injection, schedule: Q01DX009 (ip), vehicle: Klucel (hydroxypropylcellulose) (HPC)
[2] = dose: 200.0 mg/kg/injection, schedule: Q01DX009 (ip), vehicle: saline with Tween-80
[3] = dose: 400.0 mg/kg/injection, schedule: Q04DX002 (ip), vehicle: saline with Tween-80

With O=C(C=C(C(F)(F)F)C(F)(F)F)c1ccc(F)cc1 the T/C (dose: 25.0 mg/kg/injection, schedule: Q01DX009 (ip), vehicle: other) was 127 % of control, the T/C (dose: 37.5 mg/kg/injection, schedule: Q01DX009 (ip), vehicle: other) was 127 % of control [5 of 6 alive] and the survivor count (dose: 50.0 mg/kg/injection, schedule: Q01DX009 (ip), vehicle: Klucel (hydroxypropylcellulose) (HPC)) was 2 of 6.

O=C(c1ccccc1)c1ccccc1C(=O)c1ccccc1 was tested, and the survivor count (dose: 200.0 mg/kg/injection, schedule: Q01DX009 (ip), vehicle: Klucel (hydroxypropylcellulose) (HPC)) was 6 of 6 and the survivor count [1] was 6 of 6.

For CCCCCC(O)C1C(=O)OC(C)C(O)/C=C/C=C/C=C/C=C\C=C(\C)C(O)CC(O)CC(O)CC(O)CC(O)CC(O)CC1O (configuration not stated), the T/C (dose: 5.0 mg/kg/injection, schedule: Q01DX009 (ip), vehicle: saline) was 134 % of control, the survivor count (dose: 10.0 mg/kg/injection, schedule: Q01DX009 (ip), vehicle: saline) was 2 of 3 and the survivor count (dose: 20.0 mg/kg/injection, schedule: Q01DX009 (ip), vehicle: saline) was 0 of 3. The survivor count (dose: 29.0 mg/kg/injection, schedule: Q01DX009 (ip), vehicle: Klucel (hydroxypropylcellulose) (HPC)) was 2 of 6, the survivor count (dose: 45.0 mg/kg/injection, schedule: Q01DX009 (ip), vehicle: Klucel (hydroxypropylcellulose) (HPC)) was 0 of 6 and the survivor count (dose: 65.0 mg/kg/injection, schedule: Q01DX009 (ip), vehicle: Klucel (hydroxypropylcellulose) (HPC)) was 0 of 6.

In the case of C1CCC2[N-]CC3CCCCC3[N-]CC3CCCCC3[N-]CC3CCCCC3[N-]CC2C1.[Cu] (configuration not stated), the T/C (dose: 0.39 mg/kg/injection, schedule: Q01DX009 (ip), vehicle: saline) is reported as 125 % of control, the T/C (dose: 0.78 mg/kg/injection, schedule: Q01DX009 (ip), vehicle: saline) is reported as 142 % of control and the T/C (dose: 3.12 mg/kg/injection, schedule: Q01DX009 (ip), vehicle: saline) is reported as 144 % of control.

For O=c1[nH]c(Cl)nc2c(Cl)c(C(Cl)(Cl)Cl)nn12, the survivor count (dose: 25.0 mg/kg/injection, schedule: Q01DX009 (ip), vehicle: saline with Tween-80) was 4 of 6, the survivor count (dose: 50.0 mg/kg/injection, schedule: Q01DX009 (ip), vehicle: saline with Tween-80) was 6 of 6 and the survivor count (dose: 100.0 mg/kg/injection, schedule: Q01DX009 (ip), vehicle: saline with Tween-80) was 6 of 6. The survivor count [2] was 4 of 6 and the survivor count (dose: 200.0 mg/kg/injection, schedule: Q04DX003 (ip), vehicle: saline with Tween-80) was 5 of 6.

CCOC(=O)N1CCN(CCCCCOc2ccccc2C2CCCCC2)CC1 was tested, and the T/C [2] was 126 % of control.

In the case of Cc1ccc(C[P+](c2ccccc2)(c2ccccc2)c2ccccc2)cc1, the survivor count (dose: 20.0 mg/kg/injection, schedule: Q01DX010 (ip), vehicle: saline) is reported as 4 of 6.

For Nc1cc(Cl)c2cccnc2c1O, the T/C (dose: 25.0 mg/kg/injection, schedule: Q01DX009 (ip), vehicle: saline) was 127 % of control, the T/C (dose: 33.0 mg/kg/injection, schedule: Q01DX009 (ip), vehicle: saline) was 131 % of control and the T/C (dose: 50.0 mg/kg/injection, schedule: Q01DX009 (ip), vehicle: saline) was 127, 128, 135, 141 % of control. The survivor count (dose: 75.0 mg/kg/injection, schedule: Q01DX009 (ip), vehicle: saline) was 5 of 6, the survivor count (dose: 100.0 mg/kg/injection, schedule: Q01DX009 (ip), vehicle: saline) was 1 of 6 and 2 of 6 and the T/C (dose: 100.0 mg/kg/injection, schedule: Q04DX003 (ip), vehicle: saline sonified) was 125 % of control. For the same compound, the survivor count (dose: 150.0 mg/kg/injection, schedule: Q04DX003 (ip), vehicle: saline sonified) was 3 of 6 and the survivor count (dose: 200.0 mg/kg/injection, schedule: Q04DX003 (ip), vehicle: saline sonified) was 2 of 6.

For CCOC(=O)CN1C(=O)S/C(=C/c2ccc([N+](=O)[O-])o2)C1=O, the T/C [3] was 131 % of control [5 of 6 alive].

For CC(CCC(C)OS(C)(=O)=O)OS(C)(=O)=O (configuration not stated), the survivor count (dose: 8.0 mg/kg/injection, schedule: Q01DX010 (ip), vehicle: saline) was 6 of 6, the T/C (dose: 16.0 mg/kg/injection, schedule: Q01DX010 (ip), vehicle: saline) was 136 % of control and the survivor count (dose: 32.0 mg/kg/injection, schedule: Q01DX010 (ip), vehicle: saline) was 6 of 6.

In the case of CC(=O)Nc1ccc(/C=C\c2ccnc3ccccc23)cc1, the survivor count (dose: 100.0 mg/kg/injection, schedule: Q04DX002 (ip), vehicle: saline with Tween-80) is reported as 6 of 6, the survivor count (dose: 200.0 mg/kg/injection, schedule: Q04DX002 (ip), vehicle: saline with Tween-80) is reported as 1 of 6 and the survivor count [3] is reported as 0 of 6.

With Cc1ccc(NC(=S)NNC(=S)NNc2ccccc2)cc1C the T/C [1] was 125 % of control.
